# Test results from article PMC5554537 (Frontiers in Pharmacology, 2017).
# Experiment: Reductive metabolism in liver S9 preparations
# Type: in vitro ADME, NIH-III mice
# Procedure: In vitro hepatic metabolism of SN30000 and M14 was studied using 9,000 g post-mitochondrial supernatants (S9) prepared from livers of female NIH-III mice. Metabolism at 37°C was measured by dilution of S9 to appropriate protein concentrations (measured by BCA protein assay) in sodium/potassium phosphate buffer (67 mM phosphate, pH 7.4) containing 5 mM MgCl2, 1 mM EDTA, 1 mM NADPH, 1 mM NADH and 150 μM test drug. The reaction was terminated by adding an equal volume of ice-cold MeOH and samples were analyzed by LC-MS/MS. Two methods were used to modify the oxygen concentration. […]
# To address whether this reflects an oxygen-sensitive (one-electron reduction) or oxygen-insensitive (two-electron reduction) process, metabolism was compared in NIH-III mouse liver S9 preparations under 20% O2 or anoxia. […] The liver S9 intrinsic clearance, CLint, was calculated as Vmax/Km for M14 formation under anoxia and scaled to the whole liver based on the (unrealistic) assumption that the liver is entirely anoxic. This upper estimate of in vivo hepatic clearance was then predicted as previously described ([Gu et al., 2011b]) using the free fraction of SN30000 in mouse plasma determined by equilibrium dialysis (Supplementary Table 11).
smiles,measurement,setting,value
"[O-][n+]1nc(CCCN2CCOCC2)[n+]([O-])c2cc3c(cc21)CCC3 [SN30000, 3-(3-Morpholinopropyl)-7,8-dihydro-6H-indeno[5,6-e][1,2,4]triazine 1,4-dioxide]",O2 in solution at equilibrium at ∼50% inhibition of M14 formation,0.2% O2 gas phase,~1.87 µM
same,Gas phase O2 concentration for 50% inhibition of reductive metabolism to M14,"stirred S9, 4-parameter Hill model",0.19 ± 0.03%
